Results on 4 sequences are retold here after article PMC2912280.

The chains behind the UniProt entries cited, without tags or fusion partners.
UniProt P40763, whole entry: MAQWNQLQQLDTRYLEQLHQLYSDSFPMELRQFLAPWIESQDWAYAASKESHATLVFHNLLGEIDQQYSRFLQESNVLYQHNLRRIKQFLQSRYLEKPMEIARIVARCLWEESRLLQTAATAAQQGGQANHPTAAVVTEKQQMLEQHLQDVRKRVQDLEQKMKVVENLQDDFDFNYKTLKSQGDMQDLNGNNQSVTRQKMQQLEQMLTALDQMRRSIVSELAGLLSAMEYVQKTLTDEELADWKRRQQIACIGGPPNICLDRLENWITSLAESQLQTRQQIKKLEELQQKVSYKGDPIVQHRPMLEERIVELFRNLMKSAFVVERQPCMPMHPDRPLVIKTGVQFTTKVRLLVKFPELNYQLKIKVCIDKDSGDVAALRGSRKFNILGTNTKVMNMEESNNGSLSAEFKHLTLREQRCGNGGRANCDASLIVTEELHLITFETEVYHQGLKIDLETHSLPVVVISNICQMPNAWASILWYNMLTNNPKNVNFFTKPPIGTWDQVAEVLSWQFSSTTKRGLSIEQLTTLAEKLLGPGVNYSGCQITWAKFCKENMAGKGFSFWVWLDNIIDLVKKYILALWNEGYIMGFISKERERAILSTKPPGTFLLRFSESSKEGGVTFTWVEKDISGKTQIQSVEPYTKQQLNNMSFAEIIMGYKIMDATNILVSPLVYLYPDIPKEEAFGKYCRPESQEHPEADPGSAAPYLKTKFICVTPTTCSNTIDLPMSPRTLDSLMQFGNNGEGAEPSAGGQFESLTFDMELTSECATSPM

The exact form of at least one protein or probe is not confirmed. Where cells or extracts were used, other partners may take part. For some of these results: Negatives hold for the conditions tested. For some of these results: At least one verdict was read from the data and is not stated in words by the source.

Data set [1] deals with Stat3 (MM1 cell nuclear extract, IL-6 stimulated + tyrosine-phosphorylated) (UniProt P40763). The data set is described as follows: EMSA with antibody interference and cold competition. To be noted: IL-6 stimulated MM1 extract; 2 ug nuclear extract with biotin probe in binding buffer (Panomics Gel-Shift Kit; composition, salt and pH not given), 30 min on ice; 5% polyacrylamide TBE gel; protein in an extract; label: biotin.

The target is the same in data set [2]. The data set is described as follows: EMSA. To be noted: IL-6 stimulated MM1 extract, no nuclear protein bound; 2 ug nuclear extract with biotin probe in binding buffer (Panomics Gel-Shift Kit; composition, salt and pH not given), 30 min on ice; 5% polyacrylamide TBE gel; protein in an extract; label: biotin. In general terms: Mobility shift assays separate free from complexed probe on a gel.

The target is the same in data set [3]. The data set is described as follows: EMSA with cold competition. To be noted: IL-6 stimulated MM1 extract, Stat3 antibody not reported for this probe; 2 ug nuclear extract with biotin probe in binding buffer (Panomics Gel-Shift Kit; composition, salt and pH not given), 30 min on ice; 5% polyacrylamide TBE gel; protein in an extract; label: biotin.

Take “CCGCGACCGCTTTCTGCGAAGTCGGGGAGG (double strand) [ROR1 promoter probe 1 (-143 to -114)]”: the binding result in data set [1] is “binds”.

As for “GGCTGGAGAGTTGGTGGAAAGTGACAAGTT (double strand) [ROR1 promoter probe 2 (-30 to -1)]”, the binding result in data set [2] is given as “no binding”.

Regarding “TCTCTCAACTCTTGGGTCCAAGAAGAAAGC (double strand) [ROR1 promoter probe 3 (-429 to -400)]”, the binding result in data set [3] is given as “binds”.

In the case of “TGACTCTTTTTAGTGTCAATGGAGGATTTG (double strand) [ROR1 promoter probe 4 (-1053 to -1024)]”, the binding result in data set [2] is “no binding”.
